No constants are given. Whether binding was seen depends on the method and setting. Binding seen in cells or lysates may run through a third protein. Binding can be weak; no strength is given.

The chains behind the UniProt entries cited, without tags or fusion partners. Where a name states a change or a piece, a line headed by the entry shows the natural chain unless it says otherwise.
UniProt Q8WYB5: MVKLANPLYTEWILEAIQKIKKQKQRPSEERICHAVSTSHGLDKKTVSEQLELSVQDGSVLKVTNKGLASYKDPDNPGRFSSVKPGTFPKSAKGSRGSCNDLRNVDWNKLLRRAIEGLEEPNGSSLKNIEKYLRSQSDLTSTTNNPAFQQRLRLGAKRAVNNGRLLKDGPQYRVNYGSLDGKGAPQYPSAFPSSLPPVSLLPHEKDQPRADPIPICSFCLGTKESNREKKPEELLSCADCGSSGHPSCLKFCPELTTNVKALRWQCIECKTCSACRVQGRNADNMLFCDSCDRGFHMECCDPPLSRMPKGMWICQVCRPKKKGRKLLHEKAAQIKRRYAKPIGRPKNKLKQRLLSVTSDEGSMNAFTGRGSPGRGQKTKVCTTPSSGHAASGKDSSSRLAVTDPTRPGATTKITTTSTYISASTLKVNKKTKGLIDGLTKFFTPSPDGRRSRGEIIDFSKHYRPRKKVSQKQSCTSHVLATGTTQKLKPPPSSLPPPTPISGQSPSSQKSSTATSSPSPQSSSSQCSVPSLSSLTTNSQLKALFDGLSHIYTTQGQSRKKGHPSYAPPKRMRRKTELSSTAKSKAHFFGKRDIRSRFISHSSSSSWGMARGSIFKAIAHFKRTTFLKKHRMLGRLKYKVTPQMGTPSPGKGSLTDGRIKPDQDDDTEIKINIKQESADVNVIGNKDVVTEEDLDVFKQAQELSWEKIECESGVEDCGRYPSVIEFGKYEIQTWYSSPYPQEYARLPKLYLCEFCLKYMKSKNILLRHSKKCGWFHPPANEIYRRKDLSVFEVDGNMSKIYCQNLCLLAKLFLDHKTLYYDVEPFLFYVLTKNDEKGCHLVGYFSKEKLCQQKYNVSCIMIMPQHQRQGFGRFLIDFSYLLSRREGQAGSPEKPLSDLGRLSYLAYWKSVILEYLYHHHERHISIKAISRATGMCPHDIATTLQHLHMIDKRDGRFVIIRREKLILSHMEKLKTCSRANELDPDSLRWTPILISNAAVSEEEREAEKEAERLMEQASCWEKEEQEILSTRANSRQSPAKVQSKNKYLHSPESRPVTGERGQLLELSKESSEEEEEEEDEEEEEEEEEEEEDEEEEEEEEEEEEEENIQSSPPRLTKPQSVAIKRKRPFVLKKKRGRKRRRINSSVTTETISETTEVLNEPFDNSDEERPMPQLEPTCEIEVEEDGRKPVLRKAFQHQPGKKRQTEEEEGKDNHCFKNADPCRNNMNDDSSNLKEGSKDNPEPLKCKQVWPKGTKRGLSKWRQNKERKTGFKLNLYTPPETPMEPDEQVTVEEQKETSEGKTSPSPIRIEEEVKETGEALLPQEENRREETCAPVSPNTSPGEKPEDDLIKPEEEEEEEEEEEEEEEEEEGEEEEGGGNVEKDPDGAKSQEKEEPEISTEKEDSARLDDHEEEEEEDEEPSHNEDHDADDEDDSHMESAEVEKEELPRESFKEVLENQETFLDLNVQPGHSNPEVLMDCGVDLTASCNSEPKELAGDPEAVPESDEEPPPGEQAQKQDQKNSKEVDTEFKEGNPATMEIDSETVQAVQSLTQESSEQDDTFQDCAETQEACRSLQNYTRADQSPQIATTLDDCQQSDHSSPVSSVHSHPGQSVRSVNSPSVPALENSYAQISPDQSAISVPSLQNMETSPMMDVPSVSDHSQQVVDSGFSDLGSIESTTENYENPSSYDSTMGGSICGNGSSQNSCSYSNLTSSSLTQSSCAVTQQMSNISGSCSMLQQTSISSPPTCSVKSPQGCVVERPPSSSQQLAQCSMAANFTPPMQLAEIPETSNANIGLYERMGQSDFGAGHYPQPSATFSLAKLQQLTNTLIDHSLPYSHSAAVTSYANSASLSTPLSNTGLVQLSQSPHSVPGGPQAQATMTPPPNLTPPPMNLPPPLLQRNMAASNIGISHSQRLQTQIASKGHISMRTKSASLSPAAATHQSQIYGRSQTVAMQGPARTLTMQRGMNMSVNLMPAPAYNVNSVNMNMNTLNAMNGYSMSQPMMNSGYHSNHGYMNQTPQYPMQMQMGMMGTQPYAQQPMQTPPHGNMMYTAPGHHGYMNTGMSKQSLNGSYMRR
UniProt P55201: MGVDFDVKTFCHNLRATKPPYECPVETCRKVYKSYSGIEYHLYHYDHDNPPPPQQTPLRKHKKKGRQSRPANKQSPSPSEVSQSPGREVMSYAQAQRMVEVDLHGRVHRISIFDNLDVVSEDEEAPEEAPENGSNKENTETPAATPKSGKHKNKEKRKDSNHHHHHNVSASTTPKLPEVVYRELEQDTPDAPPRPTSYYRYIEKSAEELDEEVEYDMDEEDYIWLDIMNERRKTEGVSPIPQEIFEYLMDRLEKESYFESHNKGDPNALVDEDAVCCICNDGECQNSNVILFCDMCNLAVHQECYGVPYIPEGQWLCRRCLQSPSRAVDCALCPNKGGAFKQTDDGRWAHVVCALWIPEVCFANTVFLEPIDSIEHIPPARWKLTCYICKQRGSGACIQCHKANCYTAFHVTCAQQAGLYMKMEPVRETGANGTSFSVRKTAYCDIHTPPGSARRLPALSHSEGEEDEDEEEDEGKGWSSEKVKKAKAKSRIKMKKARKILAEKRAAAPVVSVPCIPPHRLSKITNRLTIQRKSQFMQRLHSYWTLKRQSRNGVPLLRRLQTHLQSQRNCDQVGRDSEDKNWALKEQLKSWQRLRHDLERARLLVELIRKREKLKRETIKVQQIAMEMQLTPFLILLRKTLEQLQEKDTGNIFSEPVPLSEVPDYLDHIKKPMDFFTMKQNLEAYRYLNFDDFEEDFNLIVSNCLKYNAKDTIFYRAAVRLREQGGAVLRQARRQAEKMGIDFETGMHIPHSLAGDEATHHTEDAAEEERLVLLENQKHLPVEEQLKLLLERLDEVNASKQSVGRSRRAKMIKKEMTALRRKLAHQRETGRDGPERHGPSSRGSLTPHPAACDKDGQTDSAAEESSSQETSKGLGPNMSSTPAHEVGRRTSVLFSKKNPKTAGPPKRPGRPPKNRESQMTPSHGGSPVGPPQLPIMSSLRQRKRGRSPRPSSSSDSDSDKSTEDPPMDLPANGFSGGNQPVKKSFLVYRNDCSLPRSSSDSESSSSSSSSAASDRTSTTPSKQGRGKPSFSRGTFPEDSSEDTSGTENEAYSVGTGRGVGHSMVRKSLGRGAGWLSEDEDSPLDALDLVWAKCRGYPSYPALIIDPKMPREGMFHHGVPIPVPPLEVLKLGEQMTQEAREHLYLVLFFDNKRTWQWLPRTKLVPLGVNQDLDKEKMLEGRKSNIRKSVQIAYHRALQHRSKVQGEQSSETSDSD
UniProt Q8WYH8: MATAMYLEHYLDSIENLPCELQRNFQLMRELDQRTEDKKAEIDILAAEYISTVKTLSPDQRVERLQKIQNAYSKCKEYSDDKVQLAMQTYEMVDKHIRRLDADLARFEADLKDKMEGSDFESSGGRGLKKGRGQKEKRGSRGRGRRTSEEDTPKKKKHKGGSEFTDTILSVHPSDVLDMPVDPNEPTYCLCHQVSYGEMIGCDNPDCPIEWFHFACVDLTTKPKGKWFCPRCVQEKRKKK

The target of this assay is FLAG-MORFN (residues 1–716 of MORF) (human) (UniProt Q8WYB5). Put plainly: co-IP; FLAG-MORFN co-transfected with HA-BRPF1, HA-MEAF6 and HA-ING5 in 293T cells; lysis at 450 mM NaCl, reduced to 225 mM; anti-FLAG M2 beads 2 h at 4 °C, elution with 3× FLAG peptide.

On to HA-BRPF1 (from UniProt P55201 1-1214), for which the binding result was “binds”.
With HA-ING5 (from UniProt Q8WYH8 1-240), the binding result was “binds”.
